## Results of single-concentration screens

Values are the deposited “Percent Effect”, in %.
How 0% and 100% were set is not recorded. Most values in the screen are low, and negative values occur.
The compounds are a random part of those screened.

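Growth of Mycobacterium tuberculosis over 3 days (7H9 medium with glucose and tyloxapol); the read-out is not stated. Compounds at 500 µM. Direction is inferred from retests: higher values go with more growth inhibition. Of about 18,000 compounds tested this way, about 1,400 (7.9%) reached 50% or more in at least one test.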

compound,percent effect
CN1CCC(N)c2ccccc21 (stereo not drawn),15.17%
CC(C)NS(=O)(=O)c1cccc(C(=O)NCCCO)c1,13.29%
Cc1occc1C(=O)NCCCNCc1cccnc1,1.176%
CC(=O)Nc1cccc(CN(C)S(=O)(=O)C(C)C)c1,-7.572%
CC(C)(C)C(=O)N1CCN(CCCO)CC1,5.389%
CSCC(=O)Nc1ccc(C(=O)NCC(F)(F)F)cc1,16.23%
Cc1cc(NC(=O)CN(C)CC(=O)NC2CC2)on1,15.55%
CC(Cn1cncn1)Nc1ncccc1F (stereo not drawn),4.574%
CC(C)(C)NC(=O)C1CCCCN1 (stereo not drawn),-2.483%
Cc1nnc(CNC(=O)Cc2cc(F)cc(F)c2)o1,2.866%
CS(=O)(=O)N1CCCC(N)C1 (stereo not drawn),1.223%
CNC(=O)NC(=O)CCN1CCN(S(C)(=O)=O)CC1,65.96%
Cc1nc(NCCc2cc[nH]n2)cc(C2CC(O)C2)n1 (stereo not drawn),-8.728%
Cc1cnc(C(=O)Nc2ncccc2O)cn1,9.367%
CNC(=O)c1csc(Br)c1,20.78%
CCOC(=O)CNC(=O)NC(C)c1ccccn1 (stereo not drawn),-2.954%
CN1C(=O)Cc2cc(C(=O)NCc3ccco3)ccc21,17.4%
CCN(CC(N)=O)Cc1ccccc1NC(C)=O,-2.993%
CC(C)CC(C)CN1CCN(CCS(C)(=O)=O)CC1 (stereo not drawn),-3.52%
Cc1nc(C(=O)N2CCSCC2)c(C)s1,10%
Cc1cccc(N2CCCC(N)C2)n1 (stereo not drawn),89.36%
CCc1nsc(N2CCN(C(=O)[C@@H](C)N)CC2)n1,11.16%
O=C(CCN1CCCC1CO)NCc1ccccc1Cl (stereo not drawn),69.31%
Cc1ccc(C(C)N(C)C(=O)c2cccnc2O)s1 (stereo not drawn),21.17%
NCc1cccc(S(=O)(=O)C(F)(F)F)c1,13.62%
CC(C)OCCS(=O)(=O)N(C)Cc1ccco1,67.17%
NCC1CCCN(c2ncccn2)C1 (stereo not drawn),62.91%
COCC(=O)N1CCCN(C(=O)CN(C)C)CC1,14.23%
Cc1nnc(SCCCNC(=O)c2cnccc2C)s1,28.71%
CSCCC(NS(=O)(=O)c1ccc(C)cc1)C(N)=O (stereo not drawn),6.382%
CCC(NS(=O)(=O)c1cc(C)nn1CC)[C@H]1C[C@H](O)C1 (stereo partly drawn),14.72%
CN(C)CC(=O)NC(C)(C)c1nc2ccccc2n1C,3.957%
NC(=O)Cc1ccc(NC(=O)CC(F)(F)F)cc1,-17.84%
NC(=O)C1CCN(CCOc2ccccc2)CC1,0.7864%
Cn1nc(C(N)=O)cc1C(F)(F)F,5.468%
CCOC(=O)N1CCC(N2CCC(C(N)=O)CC2)CC1,26.19%
COCC(O)CNc1ccc2ccc(F)cc2n1 (stereo not drawn),39.19%
CN(C(=O)Cn1cc(Br)cn1)C1(C#N)CCCCC1,-2.881%
CC(C)CCNC(=O)c1ccc2c(c1)C(=O)N(C)C2=O,-10.36%
CNC(=O)CCC1CCCCN1 (stereo not drawn),-2.327%
CC(C)c1cc(C(=O)N[C@H]2CC[C@H]2N)on1,18.38%
CCn1cc(CNC2(C(=O)OC)CC2)cn1,8.928%
COc1ccc(NC(=O)c2cccn2C)cc1OC,33.85%
Cn1cncc1C1CCCCN1 (stereo not drawn),46.62%
N#CC1COCCN1C(=O)c1ccc(Cl)cn1 (stereo not drawn),-0.172%
CCC(N)c1cnn(CC)c1 (stereo not drawn),16.24%
COCC(C)(O)C(=O)N(C)Cc1ccccc1 (stereo not drawn),5.638%
CNC(=O)C(N)C(C)C (stereo not drawn),-2.132%
COc1c(CC(O)CO)cc2c(c1OC)OCO2 (stereo not drawn),13.04%
O=C(Nc1cccnc1)OCC(F)(F)F,21.42%
Cn1nccc1CCC(=O)N[C@@H]1COCC[C@H]1O,6.421%
Nc1cc(C2CCN(C(=O)Cc3ccsc3)CC2)no1,54.65%
CC(C)n1cncn1,-9.773%
Cc1cc(CNC(=O)CSc2ccncc2)on1,8.87%
O=C(c1cc(Cl)ccc1OC(F)F)N1CCC(O)CC1,20.9%
CCN(Cc1nc(N)nc(N(C)C)n1)CC1CCOC1 (stereo not drawn),6.328%
N#Cc1cccc(CN)c1F,2.426%
CC1(C)C(C(=O)N2CCC(N)C2)C1(C)C (stereo not drawn),-8.391%
Cc1cc(C)cc(C(O)Cn2ccnc2S(C)(=O)=O)c1 (stereo not drawn),41.32%
COCCn1cncc1CO,2.312%
Cc1ccc(C(=O)N2CCCC(CO)C2)o1 (stereo not drawn),19.71%
CCc1nnc(CNC(=O)c2cnn(CC)c2C)s1,24.5%

The first 6 entries again:

compound	percent effect
CN1CCC(N)c2ccccc21 (stereo not drawn)	15.17%
CC(C)NS(=O)(=O)c1cccc(C(=O)NCCCO)c1	13.29%
Cc1occc1C(=O)NCCCNCc1cccnc1	1.176%
CC(=O)Nc1cccc(CN(C)S(=O)(=O)C(C)C)c1	-7.572%
CC(C)(C)C(=O)N1CCN(CCCO)CC1	5.389%
CSCC(=O)Nc1ccc(C(=O)NCC(F)(F)F)cc1	16.23%

The values are deposited in ChEMBL (CHEMBL3988442, “University of Dundee, Small-Polar-MMV Screening Library” (2021)).